# Where a name gives a salt, the structure may show the parent alone. ± gives the uncertainty stated by the source. The list shows a part of the results. Baselines shift from plate to plate; read single values as rough.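 At 6 dpf, larvae had a heat-shock-induced fluorescent stripe placed in rod outer segments; shedding distance, from stripe to outer segment tip, was measured in confocal stacks, roughly three fish per compound. Controls received 0.2% DMSO vehicle; compounds were flagged for ≥20% change versus same-week control and p < 0.001 (Dunnett test, mixed-effects models).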
# Tested on: Danio rerio larva rod photoreceptor outer segment
# Assay: rod outer segment growth distance Dg, difference from same-week DMSO control mean; higher = more outer segment growth
# Conditions: 20 µM; treatment time: 4 days (6-10 dpf)
row,SMILES,rod outer segment growth distance Dg
1,CC(=O)SCC(Cc1ccccc1)C(=O)NCC(=O)OCc1ccccc1 (stereo not drawn) [Racecadotril],-0.65 ± 0.24 um
2,CO/N=C(\C(=O)N[C@@H]1C(=O)N2C(C(=O)O)=C(Cn3ccc(=N)n3CCO)CS[C@H]12)c1csc(N)n1 [Cefoselis Sulfate],-0.67 ± 0.25 um
3,COc1cccc(-c2cc(=O)c3ccccc3o2)c1N,-0.61 ± 0.2 um
4,Cn1c(=O)cc(N2CCC[C@@H](N)C2)n(Cc2ccccc2C#N)c1=O [Alogliptin],-0.38 ± 0.16 um
5,Nc1ccc(S(=O)(=O)Nc2ccccn2)cc1 [Sulfapyridine],-0.46 ± 0.21 um
6,"CC(C)(C)C#Cc1cc(N(C(=O)[C@H]2CC[C@H](C)CC2)[C@H]2CC[C@H](O)CC2)c(C(=O)O)s1 [VX-222 (VCH-222, Lomibuvir)]",-0.29 ± 0.16 um
7,COc1cc(Nc2ncc(F)c(Nc3ccc4c(n3)NC(=O)C(C)(C)O4)n2)cc(OC)c1OC [R406 (free base)],-0.42 ± 0.21 um
8,Nc1nc(N)nc(-c2cc(Cl)ccc2Cl)n1 [Irsogladine],0.9 ± 0.23 um
9,COCC[n+]1c2c(n(Cc3cnccn3)c1C)C(=O)c1ccccc1C2=O [YM155 (Sepantronium Bromide)],-1.08 ± 0.17 um
10,CCCCOc1ccc(C(=O)Nc2ccc(F)cc2F)cc1,0.05 ± 0.17 um
11,c1coc(CNc2ncnc3[nH]cnc23)c1 [Kinetin],0.41 ± 0.3 um
12,CNC(=O)CN(CCN(CCN(CC(=O)[O-])CC(=O)NC)CC(=O)[O-])CC(=O)[O-].[Gd+3] [Gadodiamide],-0.94 ± 0.24 um
13,CC[C@H](NC(=O)[C@H](C)NC)C(=O)N1C[C@@H](O)C[C@H]1Cc1c(-c2[nH]c3cc(F)ccc3c2C[C@@H]2C[C@H](O)CN2C(=O)[C@H](CC)NC(=O)[C@H](C)NC)[nH]c2cc(F)ccc12 [Birinapant],-0.78 ± 0.16 um

# For convenience, 3 of the compounds above.
row,SMILES,rod outer segment growth distance Dg
6,"CC(C)(C)C#Cc1cc(N(C(=O)[C@H]2CC[C@H](C)CC2)[C@H]2CC[C@H](O)CC2)c(C(=O)O)s1 [VX-222 (VCH-222, Lomibuvir)]",-0.29 ± 0.16 um
7,COc1cc(Nc2ncc(F)c(Nc3ccc4c(n3)NC(=O)C(C)(C)O4)n2)cc(OC)c1OC [R406 (free base)],-0.42 ± 0.21 um
8,Nc1nc(N)nc(-c2cc(Cl)ccc2Cl)n1 [Irsogladine],0.9 ± 0.23 um

# From the supplement of paper PMC6143611
